In the supplement of paper PMC8728848:
The other results are listed elsewhere or left out.

Assays:
Test in all cases: glycan array binding signal (z-score within array); higher = stronger binding
Settings in all cases: glycan notation: IUPAC condensed, linker removed
[1] = target: GlcNAc(b1-4)GlcNAc(b1-4)GlcNAc(b1-4)GlcNAc(b1-4)GlcNAc
Method in brief: (§1)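 Glycan array data were curated from 3228 arrays in the Consortium for Functional Glycomics database and kept only where the protein sequence was available. Glycan names were converted to IUPAC-condensed notation, and columns mapping to the same glycan were averaged. The binding signal is a within-array Z-score, averaged across arrays of the same protein sequence at different concentrations or buffers and across linkers. Negative Z-scores can be read as non-binding.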

[2] = target: GlcNAc(b1-4)GlcNAc(b1-4)GlcNAc(b1-4)GlcNAc(b1-4)GlcNAc(b1-4)GlcNAc
Method in brief: as §1

[3] = target: GlcNAc(b1-4)[GlcNAc(b1-6)]GalNAc
Method in brief: as §1

[4] = target: GlcNAc(b1-6)Gal(b1-4)GlcNAc
Method in brief: as §1

[5] = target: GlcNAc(b1-6)GalNAc
Method in brief: as §1

[6] = target: GlcNAc6S(b1-3)Gal(b1-4)GlcNAc
Method in brief: as §1

[7] = target: Kdn(a2-3)Gal(b1-3)GalNAc
Method in brief: as §1

[8] = target: Kdn(a2-3)Gal(b1-3)GlcNAc
Method in brief: as §1

[9] = target: Kdn(a2-3)Gal(b1-4)Glc
Method in brief: as §1

[10] = target: Kdn(a2-3)Gal(b1-4)GlcNAc
Method in brief: as §1

[11] = target: Kdn(a2-3)Gal(b1-4)[Fuc(a1-3)]GlcNAc
Method in brief: as §1

[12] = target: Kdn(a2-6)Gal(b1-4)GlcNAc
Method in brief: as §1

[13] = target: Man(a1-2)Man(a1-2)Man(a1-3)Man
Method in brief: as §1

[14] = target: Man(a1-2)Man(a1-2)Man(a1-6)[Man(a1-3)]Man
Method in brief: as §1

[15] = target: Man(a1-2)Man(a1-3)Man
Method in brief: as §1

[16] = target: Man(a1-2)Man(a1-3)[Man(a1-2)Man(a1-6)]Man
Method in brief: as §1

[17] = target: Man(a1-2)Man(a1-3)[Man(a1-2)Man(a1-6)]Man(a1-6)[Man(a1-2)Man(a1-2)Man(a1-3)]Man
Method in brief: as §1

[18] = target: Man(a1-2)Man(a1-3)[Man(a1-2)Man(a1-6)]Man(a1-6)[Man(a1-2)Man(a1-2)Man(a1-3)]Man(b1-4)GlcNAc(b1-4)GlcNAc
Method in brief: as §1

[19] = target: Man(a1-2)Man(a1-3)[Man(a1-6)]Man(a1-6)[Man(a1-2)Man(a1-3)]Man(b1-4)GlcNAc(b1-4)GlcNAc
Method in brief: as §1

[20] = target: Man(a1-2)Man(a1-6)[Man(a1-3)]Man(a1-6)[Man(a1-2)Man(a1-2)Man(a1-3)]Man
Method in brief: as §1

[21] = target: Man(a1-2)Man(a1-6)[Man(a1-3)]Man(a1-6)[Man(a1-2)Man(a1-2)Man(a1-3)]Man(b1-4)GlcNAc(b1-4)GlcNAc
Method in brief: as §1

[22] = target: Man(a1-3)[Man(a1-6)]Man
Method in brief: as §1

[23] = target: Man(a1-3)[Man(a1-6)]Man(a1-6)[Man(a1-2)Man(a1-3)]Man(b1-4)GlcNAc(b1-4)GlcNAc
Method in brief: as §1

[24] = target: Man(a1-3)[Man(a1-6)]Man(a1-6)[Man(a1-3)]Man
Method in brief: as §1

[25] = target: Man(a1-3)[Man(a1-6)]Man(a1-6)[Man(a1-3)]Man(b1-4)GlcNAc(b1-4)GlcNAc
Method in brief: as §1

[26] = target: Man(a1-3)[Man(a1-6)]Man(b1-4)GlcNAc(b1-4)GlcNAc
Method in brief: as §1

[27] = target: Man(a1-3)[Man(a1-6)]Man(b1-4)GlcNAc(b1-4)[Fuc(a1-6)]GlcNAc
Method in brief: as §1

[28] = target: Man(a1-6)Man
Method in brief: as §1

[29] = target: Man(b1-4)GlcNAc
Method in brief: as §1

[30] = target: MurNAc(b1-4)GlcNAc
Method in brief: as §1

[31] = target: Neu5Ac(a2-3)Gal
Method in brief: as §1

[32] = target: Neu5Ac(a2-3)Gal(b1-3)GalNAc
Method in brief: as §1

[33] = target: Neu5Ac(a2-3)Gal(b1-3)GalNAc(b1-3)Gal(a1-4)Gal(b1-4)Glc
Method in brief: as §1

[34] = target: Neu5Ac(a2-3)Gal(b1-3)GalNAc(b1-4)[Neu5Ac(a2-3)]Gal(b1-4)Glc
Method in brief: as §1

[35] = target: Neu5Ac(a2-3)Gal(b1-3)GalNAc(b1-4)[Neu5Ac(a2-8)Neu5Ac(a2-3)]Gal(b1-4)Glc
Method in brief: as §1

[36] = target: Neu5Ac(a2-3)Gal(b1-3)GalNAc6S
Method in brief: as §1

[37] = target: Neu5Ac(a2-3)Gal(b1-3)GlcNAc
Method in brief: as §1

[38] = target: Neu5Ac(a2-3)Gal(b1-3)GlcNAc(b1-2)Man
Method in brief: as §1

[39] = target: Neu5Ac(a2-3)Gal(b1-3)GlcNAc(b1-2)Man(a1-3)[GlcNAc(b1-4)][Neu5Ac(a2-3)Gal(b1-3)GlcNAc(b1-2)Man(a1-6)]Man(b1-4)GlcNAc(b1-4)GlcNAc
Method in brief: as §1

[40] = target: Neu5Ac(a2-3)Gal(b1-3)GlcNAc(b1-2)Man(a1-3)[Neu5Ac(a2-3)Gal(b1-3)GlcNAc(b1-2)Man(a1-6)]Man(b1-4)GlcNAc(b1-4)GlcNAc
Method in brief: as §1

[41] = target: Neu5Ac(a2-3)Gal(b1-3)GlcNAc(b1-3)Gal(b1-3)GlcNAc
Method in brief: as §1

[42] = target: Neu5Ac(a2-3)Gal(b1-3)GlcNAc(b1-3)Gal(b1-4)GlcNAc
Method in brief: as §1

[43] = target: Neu5Ac(a2-3)Gal(b1-3)GlcNAc(b1-3)GalNAc
Method in brief: as §1

[44] = target: Neu5Ac(a2-3)Gal(b1-3)GlcNAc(b1-4)Gal(b1-4)Glc
Method in brief: as §1

[45] = target: Neu5Ac(a2-3)Gal(b1-3)GlcNAc(b1-6)GalNAc
Method in brief: as §1

B1: AT3G09350(27) (Arabidopsis thaliana), Q84J81 (protein)
chain: MAKDGPNWDGLLKWSLSHADGTRPTRQLSEEDRKWFMEAMQSQTVDVVKRMKEITLVMQTPEQVLVEHGVTPEDIQDLLDELQEHVESIDMANDLHSIGGLVPLLSFLKNSHANIRAKAADVVSTIVQNNPRSQELVMETNALESLLSNFTSDTDIHARTQALGAISSLIRHNKPGVTAFKLANGYAGLRDALASDSVRFQRKALNLLQYLLQEDDSDRSIATGLGFPRVMMHLASSDDAEIREAALRGLLELSREKNDGSSSIDKSDEKLRQLLEERIKGITLMSQEDLETVKEERQLVDLLWSICYNEPSSLREKGLVVLPGEDALPPDVASKLFEPPLRASAANRNATEKKDEPMKLLGP
glycan array binding signal (z-score) [1]: 0.105 | glycan array binding signal (z-score) [2]: -0.407 | glycan array binding signal (z-score) [3]: -0.008 | glycan array binding signal (z-score) [4]: 0.795 | glycan array binding signal (z-score) [5]: 0.847 | glycan array binding signal (z-score) [6]: 0.575 | glycan array binding signal (z-score) [7]: -0.486 | glycan array binding signal (z-score) [8]: -0.248 | glycan array binding signal (z-score) [9]: 0.722 | glycan array binding signal (z-score) [10]: 0.155 | glycan array binding signal (z-score) [11]: 1.28 | glycan array binding signal (z-score) [12]: -0.342 | glycan array binding signal (z-score) [13]: -0.551 | glycan array binding signal (z-score) [14]: 0.055 | glycan array binding signal (z-score) [15]: -0.372 | glycan array binding signal (z-score) [16]: -0.228 | glycan array binding signal (z-score) [17]: -0.612 | glycan array binding signal (z-score) [18]: -0.298 | glycan array binding signal (z-score) [19]: 0.32 | glycan array binding signal (z-score) [20]: -0.582 | glycan array binding signal (z-score) [21]: -0.956 | glycan array binding signal (z-score) [22]: 0.427 | glycan array binding signal (z-score) [23]: -1.14 | glycan array binding signal (z-score) [24]: 0.106 | glycan array binding signal (z-score) [25]: -0.052 | glycan array binding signal (z-score) [26]: 0.06 | glycan array binding signal (z-score) [27]: -0.176 | glycan array binding signal (z-score) [28]: 0.59 | glycan array binding signal (z-score) [29]: 0.136 | glycan array binding signal (z-score) [30]: -1.12 | glycan array binding signal (z-score) [31]: -0.483 | glycan array binding signal (z-score) [32]: -0.387 | glycan array binding signal (z-score) [33]: 0.007 | glycan array binding signal (z-score) [34]: 0.721 | glycan array binding signal (z-score) [35]: -0.601 | glycan array binding signal (z-score) [36]: -0.398 | glycan array binding signal (z-score) [37]: -0.447 | glycan array binding signal (z-score) [38]: -0.592 | glycan array binding signal (z-score) [39]: -0.8 | glycan array binding signal (z-score) [40]: -0.267 | glycan array binding signal (z-score) [41]: -0.473 | glycan array binding signal (z-score) [42]: 0.71 | glycan array binding signal (z-score) [43]: 0.16 | glycan array binding signal (z-score) [44]: -0.46 | glycan array binding signal (z-score) [45]: -0.837
